# In PubChem BioAssay AID504834 (National Center for Advancing Translational Sciences (NCATS), 2011):
# Out of some 320,000 compounds screened, about 22,000 (6.9%) were called active. The inconclusive results got no clear call from the source; some entries with a clear call stand among them for comparison. The call rests on the fitted dose curve; in most records, active means well fitted inhibition curve with a large enough effect; inconclusive means small, poorly fitted or top-dose-only effect, or another doubt; inactive means no such curve, though single readings can be large or run the other way. Potencies beside an inconclusive call are fits to weak or partial responses and may not hold up.
# Assay: Primary qHTS for delayed death inhibitors of the malarial parasite plastid, 96 hour incubation
# Settings: P. falciparum luciferase reporter growth; series mostly up to 28.7 µM
# Summary of the method: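 Delayed-death screen, second-generation endpoint: infected erythrocytes, 2% hematocrit, 0.05% parasitemia final; 96 hours at 37 C, 5% CO2; luciferase detection reagent; luminescence decrease equals reduced growth.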
# Potency means the concentration at half of the fitted maximal effect.
row,SMILES,Potency
1,COc1ccc(C2CC(c3cccs3)=NN2C(=O)CSc2nc(=O)n3ccc(C)cc3n2)cc1 (centres undefined),"inconclusive: 1.65 µM [inhibitor, full curve]"
2,O=C(CN1CCCCC1)N1N=C(c2cccs2)CC1c1cccs1 (centres undefined),"inconclusive: 10.4 µM [inhibitor, single point]"
3,CN1CC2([N+](=O)[O-])CC=C(OCCO)C([N+](=O)[O-])(C1)C2 (centres undefined),inactive
4,Cc1c(Cc2c(Cl)cccc2Cl)c(=O)ccn1C(C)c1ccccc1 (centres undefined),"inconclusive: 10.4 µM [inhibitor, partial curve]"
5,O=C(O)C1CCN(S(=O)(=O)N2CCOCC2)CC1,"inconclusive: 5.86 µM [inhibitor, partial curve]"
6,CN(C(=O)CN1C(=O)S/C(=C\c2ccccc2)C1=O)C1CCS(=O)(=O)C1 (centres undefined),active: 13.1 µM
7,CC(C)c1nc2cc(C(=O)NC(c3cccnc3)C(F)(F)F)ccc2o1 (centres undefined),"inconclusive: 13.1 µM [inhibitor, partial curve, poor fit]"
8,Cc1cc(C)c(C(=O)NC2CC(C)(C)Cc3c2cnn3-c2cccc(F)c2)[nH]1 (centres undefined),"inconclusive: 2.62 µM [inhibitor, single point]"
9,CC(=O)NC(c1ccccc1)c1c(O)ccc2ccccc12 (centres undefined),inactive
10,COC(=O)[C@H](CCSC)NC(=O)Nc1ccc(C)c(C)c1,"inconclusive: 14.7 µM [inhibitor, partial curve, poor fit]"
11,CCC(CC)C(=O)Nc1c2c(nn1-c1ccc(F)cc1)CS(=O)(=O)C2,inactive
12,CCOC(=O)c1c(C)[nH]c(C)c1S(=O)(=O)NCCN1CCN(c2cc(Cl)ccc2C)CC1,"inconclusive: 6.57 µM [inhibitor, partial curve, poor fit]"
13,COc1ccc(NC(=O)CN2CCN(S(=O)(=O)N(C)C)CC2)cc1,inactive
14,N#CC1C(C#N)N2CCCN2C1c1ccc(Cl)cc1 (centres undefined),"inconclusive: 0.0026 µM [inhibitor, full curve, poor fit]"
15,Cc1nn(Cc2ccc(C(=O)N3CCN(C(=O)c4ccco4)CC3)o2)c(C)c1[N+](=O)[O-],"inconclusive: 0.0928 µM [inhibitor, full curve]"
16,Cn1cccc1Cc1nnc(SCC(=O)N2CCCC2)n1CCc1ccccc1,"inconclusive: 0.657 µM [inhibitor, full curve, poor fit]"
17,C/C(=N/NC(=O)CNC(=O)COc1ccccc1)c1ccco1,inactive
18,CN(C)S(=O)(=O)c1ccc(Cl)c(C(=O)NC2CCCCCCC2)c1,"inconclusive: 0.147 µM [inhibitor, full curve, poor fit]"
19,CCCCc1c(O)nc(SC2CC(=O)N(c3ccc(C(=O)OCC)cc3)C2=O)[nH]c1=O (centres undefined),"inconclusive: 13.1 µM [inhibitor, single point]"

# Random excerpt: two records from the list, in no set order.
row,SMILES,Potency
8,Cc1cc(C)c(C(=O)NC2CC(C)(C)Cc3c2cnn3-c2cccc(F)c2)[nH]1 (centres undefined),"inconclusive: 2.62 µM [inhibitor, single point]"
4,Cc1c(Cc2c(Cl)cccc2Cl)c(=O)ccn1C(C)c1ccccc1 (centres undefined),"inconclusive: 10.4 µM [inhibitor, partial curve]"
